Source: patent US20210032312A1
Changes are numbered by the printed parent chain. Names may count otherwise. These are yes or no findings as the source states them, for the method shown. Some binding calls cover weakened binding; strength is not graded here.

The chains behind the UniProt entries cited, without tags or fusion partners. Where a name states a change or a piece, a line headed by the entry shows the natural chain unless it says otherwise. A line that says so, or that is headed by a name, gives the form on record, which may keep a tag or linker. Residues count along the entry.
UniProt P01732: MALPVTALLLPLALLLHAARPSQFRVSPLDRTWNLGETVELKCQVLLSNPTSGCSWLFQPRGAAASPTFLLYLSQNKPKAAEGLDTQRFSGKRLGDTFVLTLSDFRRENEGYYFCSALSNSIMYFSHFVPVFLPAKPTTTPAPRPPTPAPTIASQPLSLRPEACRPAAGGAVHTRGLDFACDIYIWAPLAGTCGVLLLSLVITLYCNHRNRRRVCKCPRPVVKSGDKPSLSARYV
human CD8A on cells: residues 22-235 of P01732
recombinant human CD8 alpha fused to Fc fragment of human IgG1: residues 22-182 of P01732

B1: CD8S402 (designed binder)
chain: LPAPKNLVVSRVTEDSARLSWTAPDAAFDSFWITYPEWPPPGGEAIVLTVPGSERSYDLTGLKPGTEYFVVIYGVKGGEIYSPLSAIFTT
B2: CD8S390 (designed binder)
chain: LPAPKNLVVSRVTEDSARLSWTAPDAAFDSFGILYYEPVDSGEAITLPVPGSERSYDLTGLKPGTEYYVVITGVKGGAPSTPLGTIFTT
B3: CD8S403 (designed binder)
chain: LPAPKNLVVSRVTEDSARLSWTAPDAAFDSFAIAYAEWPPQGEAIVLTVPGSERSYDLTGLKPGTEYFVVIYGVKGGSYSAPLSAIFTT
B4: CD8S365-DFO (designed binder)
chain: B2 chain with E53C, Y68W
modifications: Deferoxamine (DFO) conjugated to the free cysteine of E54C
B5: CD8S366-DFO (designed binder)
chain: B1 chain with P40D, E54C
modifications: Deferoxamine (DFO) conjugated to the free cysteine of E54C
B6: CD8S367-DFO (designed binder)
chain: B3 chain with A36P, E53C
modifications: Deferoxamine (DFO) conjugated to the free cysteine of E54C
B7: CD8S368-DFO (designed binder)
chain: B3 chain with A32Q, A36P, Q41P, E53C, V70I, Y72Q, S78V, Y79E, A81W
modifications: Deferoxamine (DFO) conjugated to the free cysteine of E54C
B8: CD8S369-DFO (designed binder)
chain: LPAPKNLVVSRVTEDSARLSWAKRPGAFDSFLIQYQESEKVGEAIVLTVPGSCRSYDLTGLKPGTEYTVSIYGVDVKYDIDSRPISSNPLSAIFTT
modifications: Deferoxamine (DFO) conjugated to the free cysteine of E54C
B9: CD8S370-DFO (designed binder)
chain: LPAPKNLVVSRVTEDSARLSWTAPDAAFDSFAITYIEKEHIEDGEAIVLTVPGSCRSYDLTGLKPGTEYWVPIWGVKGGANSWPLSAIFTT
modifications: Deferoxamine (DFO) conjugated to the free cysteine of E54C
B10: CD8S368 (designed binder)
chain: B3 chain with A32Q, A36P, Q41P, E53C, V70I, Y72Q, S78V, Y79E, A81W
B11: P283AR9P1362_D6 (designed binder)
chain: B8 chain with C53E
B12: P283AR9P1362_D7 (designed binder)
chain: B8 chain with A22V, P25A, G26T, A27S, C53E
B13: P283AR9P1362_E9 (designed binder)
chain: B8 chain with A22V, K23P, R24S, G26W, A27G, C53E
B14: P283AR9P1362_F12 (designed binder)
chain: B8 chain with K23R, R24N, P25I, G26T, A27S, C53E
B15: P283AR9P1362_F2 (designed binder)
chain: B8 chain with A22R, R24K, P25D, G26H, A27P, C53E
B16: P283AR9P1362_F8 (designed binder)
chain: LPAPKNLVVSRVTEDSARLSWGYYHGHFDSFLIQYQESEKVGEAIVLTVPGSERSYDLTGLKPGTEYTVSIYGVDVKWEGNRPVASNPLSAIFTT
B17: P283AR9P1362_G11 (designed binder)
chain: B8 chain with A22R, R24E, P25A, G26T, A27S, C53E
B18: P282BR9P1357_B2 (designed binder)
chain: LPAPKNLVVSRVTEDSARLSWNPSEDPQRFDSFLIQYQESEKVGEAIVLTVPGSERSYDLTGLKPGTEYTVSIYGVDVKWEGNRPVASNPLSAIFTT
B19: P283AR9P1362_G3 (designed binder)
chain: B16 chain with G22V, Y23K, Y24R, H25A, G26T, H27S
B20: P283AR9P1362_H11 (designed binder)
chain: LPAPKNLVVSRVTEDSARLSWPKIQGQHFDSFLIQYQESEKVGEAIVLTVPGSERSYDLTGLKPGTEYTVSIYGVDVKYDIDSRPISSNPLSAIFTT
B21: P283BR9P1363_A10 (designed binder)
chain: LPAPKNLVVSRVTEDSARLSWQRADDILPYFDSFLIQYQESEKVGEAIVLTVPGSERSYDLTGLKPGTEYTVSIYGVDVKYDIDSRPISSNPLSAIFTT
B22: P283BR9P1363_A8 (designed binder)
chain: LPAPKNLVVSRVTEDSARLSWVRSDTARFFDSFLIQYQESEKVGEAIVLTVPGSERSYDLTGLKPGTEYTVSIYGVDVKYDIDSRPISSNPLSAIFTT
B23: P283BR9P1363_B2 (designed binder)
chain: B21 chain with Q22A, R23S, A24T, D25V, I27P, L28H, Y30R
B24: P283BR9P1363_B6 (designed binder)
chain: LPAPKNLVVSRVTEDSARLSWQRHSDAHPLFDSFLIQYQESEKVGEAIVLTVPGSERSYDLTGLKPGTEYTVSIYGVDVKWEGNRPVASNPLSAIFTT
B25: P283BR9P1363_C4 (designed binder)
chain: LPAPKNLVVSRVTEDSARLSWPIVNTPLHFDSFLIQYQESEKVGEAIVLTVPGSERSYDLTGLKPGTEYTVSIYGVDVQYTATGQPERSNPLSAIFTT
B26: P283BR9P1363_C8 (designed binder)
chain: B24 chain with Q22A, R23K, H24T, A27L
B27: P283BR9P1363_D11 (designed binder)
chain: LPAPKNLVVSRVTEDSARLSWNKKHDGQPTFDSFLIQYQESEKVGEAIVLTVPGSERSYDLTGLKPGTEYTVSIYGVDVVYEGSYPASSNPLSAIFTT
B28: P283BR9P1363_E4 (designed binder)
chain: B24 chain with Q22I, R23K, H24S, S25E, D26T, A27S, H28Q, L30A

Key:
[1] = molecular target: recombinant human CD8 alpha fused to Fc fragment of human IgG1 (human) (UniProt P01732); assay: SPR dissociation rate on recombinant CD8 alpha
[2] = molecular target: recombinant human CD8 alpha fused to Fc fragment of human IgG1 (human) (UniProt P01732); assay: SPR on recombinant human CD8 alpha
[3] = molecular target: human CD8A on cells (human) (UniProt P01732); assay: MSD-CAT equilibrium cell-binding assay, primary human cytotoxic T cells
[4] = molecular target: recombinant human CD8 alpha fused to Fc fragment of human IgG1 (human) (UniProt P01732); assay: ELISA, biotinylated CD8W7 or CD8W13

Binder	binding [4]	other results
B1		binding [1]: binds
B2		binding [1]: binds
B3		binding [1]: binds
B4		binding [2]: binds
B5		binding [2]: binds
B6		binding [2]: binds
B7		binding [2]: binds
B8		binding [2]: binds
B9		binding [2]: binds
B10		binding [3]: binds
B11	binds	
B12	binds	
B13	binds	
B14	binds	
B15	binds	
B16	binds	
B17	binds	
B18	binds	
B19	binds	
B20	binds	
B21	binds	
B22	binds	
B23	binds	
B24	binds	
B25	binds	
B26	binds	
B27	binds	
B28	binds	
